The text below walks through data of article PMC6814103.

Chains of the proteins cited; added tags and fusions are not shown.
UniProt P62993: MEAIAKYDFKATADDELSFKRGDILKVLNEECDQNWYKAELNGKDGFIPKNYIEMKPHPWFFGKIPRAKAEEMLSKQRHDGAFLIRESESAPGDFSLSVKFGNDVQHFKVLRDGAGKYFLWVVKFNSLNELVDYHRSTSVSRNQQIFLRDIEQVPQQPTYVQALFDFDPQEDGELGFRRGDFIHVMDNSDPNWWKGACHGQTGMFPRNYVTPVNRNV

Results are given in words; binding and its absence hold for the method and conditions named. In cells and extracts the contact can be indirect. Some entries that bind do so weakly or less than the wild type. Sequences can lack the tags named with a protein.

One assay concerns the target T1, Gab1-WT-GFP (UniProt Q9QYY0).
T1 sequence: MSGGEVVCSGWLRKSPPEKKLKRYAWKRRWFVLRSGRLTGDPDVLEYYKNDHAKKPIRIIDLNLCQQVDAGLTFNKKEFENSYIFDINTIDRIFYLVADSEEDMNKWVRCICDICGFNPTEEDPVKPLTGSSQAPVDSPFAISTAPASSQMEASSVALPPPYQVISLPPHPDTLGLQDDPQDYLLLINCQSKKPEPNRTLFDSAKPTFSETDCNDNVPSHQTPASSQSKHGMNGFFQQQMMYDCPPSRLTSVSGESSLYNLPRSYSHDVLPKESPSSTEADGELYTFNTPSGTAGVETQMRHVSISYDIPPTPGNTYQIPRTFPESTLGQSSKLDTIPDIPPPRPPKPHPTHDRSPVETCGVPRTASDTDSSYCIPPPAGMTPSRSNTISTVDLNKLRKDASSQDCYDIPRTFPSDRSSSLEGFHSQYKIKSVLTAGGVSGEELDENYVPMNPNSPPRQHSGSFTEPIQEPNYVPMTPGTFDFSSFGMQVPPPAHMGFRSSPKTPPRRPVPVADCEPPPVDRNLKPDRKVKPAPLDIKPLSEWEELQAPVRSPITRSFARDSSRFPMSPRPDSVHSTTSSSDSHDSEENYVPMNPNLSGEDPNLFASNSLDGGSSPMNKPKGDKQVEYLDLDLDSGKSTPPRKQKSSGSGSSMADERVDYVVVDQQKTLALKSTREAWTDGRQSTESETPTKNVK
In words: co-IP; lysates of HEK293 Gab1-KO cells transfected with Gab1-WT-GFP or Gab1-ΔGrb2-GFP, serum-starved 4 h, Hy-IL-6 (50 ng/ml) 15 min; antibody against the GFP tag (1 μg) at 4 °C over night, Protein G-Dynabeads 4 h, three washes (50 mM Tris/HCl pH 7.4, 100 mM NaCl, 1 mM EDTA, 0.1% Nonidet P-40); blots for (p)SHP2, Grb2, Gab1, SHP2, GFP.

The target of a further assay is T2, Gab1-ΔGrb2-GFP (UniProt Q9QYY0).
T2 sequence: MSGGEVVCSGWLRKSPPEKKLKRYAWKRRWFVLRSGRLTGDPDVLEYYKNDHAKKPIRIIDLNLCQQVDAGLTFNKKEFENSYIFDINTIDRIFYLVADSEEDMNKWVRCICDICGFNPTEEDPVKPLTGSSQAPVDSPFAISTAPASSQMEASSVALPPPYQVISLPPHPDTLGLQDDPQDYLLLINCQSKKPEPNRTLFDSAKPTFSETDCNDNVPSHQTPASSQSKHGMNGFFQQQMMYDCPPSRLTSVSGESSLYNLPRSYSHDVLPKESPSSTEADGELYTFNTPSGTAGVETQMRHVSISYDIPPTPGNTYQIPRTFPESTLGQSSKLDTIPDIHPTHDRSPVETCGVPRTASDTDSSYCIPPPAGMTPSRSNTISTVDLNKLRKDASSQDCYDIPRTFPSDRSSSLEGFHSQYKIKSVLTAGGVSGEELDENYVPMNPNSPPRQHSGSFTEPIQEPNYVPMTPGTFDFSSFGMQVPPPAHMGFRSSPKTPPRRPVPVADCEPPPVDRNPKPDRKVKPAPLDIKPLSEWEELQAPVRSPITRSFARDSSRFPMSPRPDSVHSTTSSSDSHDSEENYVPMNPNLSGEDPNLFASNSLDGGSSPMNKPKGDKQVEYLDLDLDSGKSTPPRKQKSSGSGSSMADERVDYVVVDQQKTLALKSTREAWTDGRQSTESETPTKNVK
Described as above.

Turning to “growth factor receptor bound protein 2 (Grb2) (from UniProt P62993 1-217)”, the figures for the binding result with Gab1-WT-GFP and with Gab1-ΔGrb2-GFP were “binds” and “no binding”, respectively.
